The other results are listed elsewhere or left out. The main result of the screen is listed elsewhere. These columns were measured beside it and carry no call. Compounds called inactive in the main read-out are mostly missing here. Words in brackets tell the shape of the fitted curve; partial curves, single points and poor fits give uncertain potencies.
Assay: qHTS Assay to Find Inhibitors of Chronic Active B-Cell Receptor Signaling
Conditions: ABC-DLBCL IkBa-CBG/CBR reporter, luminescence ratio (green luciferase fused to IkBa over red control in TMD8 lymphoma cells), 4 h
How it was run: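 Concentration-response series (up to 46 uM) were applied to TMD8 dual-reporter cells for 4 h at 37C with doxycycline. Green/red ratio, after filter-overlap correction, defined %Activity; red signal alone was normalised to basal cells and zero luminescence.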

[1] = measured here: CBR red luminescence, cell number

| SMILES | AC50 [1] | AC50 (measured here: IkBa-CBG green luminescence) |
| --- | --- | --- |
| COC1C(OC(=O)c2ccc(C)[nH]2)C(O)C(Oc2ccc3c(O)c(NC(=O)c4ccc(O)c(CC=C(C)C)c4)c(=O)oc3c2Cl)OC1(C)C (configuration not stated) | 35.5 µM [falling, single point] | 35.5 µM [rising, partial curve, poor fit] |
| O=C(N/N=C/c1c(O)n(Cc2ccc(F)cc2)c(=O)[nH]c1=O)c1ccccc1 | 2.82 µM [falling, full curve] |  |
| O=C(CN1C2CCCC1CC(NC(=O)c1ccccc1)C2)Nc1ccccc1C(F)(F)F (configuration not stated) | 25.1 µM [falling, single point] |  |
| C[C@@H]1OC(Nc2ccc(N=Nc3ccccc3)cc2)[C@H](O)[C@H](O)[C@H]1O (some centres not stated) | 7.94 µM [falling, partial curve] |  |
| O=c1c2ccccc2[nH]c(=S)n1-c1ccc2c(c1)OCCO2 | 28.2 µM [falling, partial curve, poor fit] |  |
| Cc1ccc2c(c1)C1CN(C)CCC1N2C(=O)Nc1cccc(Cl)c1 (configuration not stated) | 3.16 µM [rising, single point] |  |
| COc1ccc(CCn2c(O)c(C=NCc3ccc4c(c3)OCO4)c(=O)[nH]c2=O)cc1OC | 4.47 µM [rising, full curve, poor fit] |  |
| O=C(COC(=O)c1cc([N+](=O)[O-])ccc1N1CCOCC1)Nc1ccc(Cl)cc1 | 35.5 µM [falling, single point] |  |
| COc1ccc(CC2C(=O)N(c3ccccc3)C(=O)N(c3ccccc3)C2=O)c(OC)c1 | 18.4 µM [falling, single point] |  |
| COC12C(COC(N)=O)C3=C(C(=O)C(C)=C(N)C3=O)N1CC1C2N1C (configuration not stated) | 17.8 µM [rising, single point] |  |
| CCOC(=O)CC(NC(=O)C(Cc1ccc(N(CCCl)CCCl)cc1)NC(C)=O)C(=O)OCC (configuration not stated) | 7.08 µM [falling, full curve, poor fit] |  |
| CCOc1cc2c(cc1OCC)-n1cccc1C(c1ccccc1OC)NC2 (configuration not stated) | 22.4 µM [falling, single point] |  |
| CC(=O)C1(c2ccccc2)CCNCC1 | 0.731 µM [rising, full curve, poor fit] |  |
| O=C(Nc1ccc(N2CCOCC2)cc1)c1cccc2ccccc12 | 10 µM [falling, partial curve] |  |
| Cc1ccc(/C(N)=N/OC(=O)CCC2CCCC2)cc1 | 11.2 µM [rising, single point] |  |
| CCC(=NCCCn1ccnc1)c1c(O)n(-c2ccccc2)c(=O)[nH]c1=O | 8.91 µM [falling, partial curve, poor fit] |  |

Whole records, looked up by structure.
CCOC(=O)CC(NC(=O)C(Cc1ccc(N(CCCl)CCCl)cc1)NC(C)=O)C(=O)OCC (configuration not stated) as listed: AC50 [1]: 7.08 µM [falling, full curve, poor fit]
O=C(N/N=C/c1c(O)n(Cc2ccc(F)cc2)c(=O)[nH]c1=O)c1ccccc1 as listed: AC50 [1]: 2.82 µM [falling, full curve]

— PubChem BioAssay AID493014 (National Center for Advancing Translational Sciences (NCATS), 2011)
